Values quoted from earlier work in PMC4977052, “On the Utility of ToxCast™ and ToxPi as Methods for Identifying New Obesogens” (Environmental Health Perspectives, 2016).

Assays:
PPARγ = conditions: potency relative to cytotoxicity; ToxCast 2014 release; ref Filer et al. 2014; cited from earlier work
Human PPARγ = conditions: potency relative to cytotoxicity; ToxCast 2014 release; ref Filer et al. 2014; cited from earlier work

Row | SMILES | Tox21/NCGC Z-Score (panel B) (PPARγ) | NovaScreen Z-Score (panel A) (Human PPARγ) | NovaScreen Z-Score (panel B) (Human PPARγ) | Tox21/NCGC Z-Score (panel A) (PPARγ)
1 | O=C(O)CCCOc1ccc(Cl)cc1Cl [2,4-DB] | 6.7 | – | – | –
2 | Oc1ccccc1-c1ccccc1 [2-Phenylphenol] | – | 11.2 | 11.2 | –
3 | O=C(O)c1cc(Oc2ccc(C(F)(F)F)cc2Cl)ccc1[N+](=O)[O-] [Acifluorfen] | – | – | 7.1 | –
4 | CCNc1nc(NC(C)C)nc(SC)n1 [Ametryn] | – | -0.8 | – | 1.1
5 | CCNc1nc(Cl)nc(NC(C)C)n1 [Atrazine] | 14.1 | 13.4 | 13.4 | 14.1
6 | CCOc1nc(F)cc2nc(S(=O)(=O)Nc3c(Cl)cccc3Cl)nn12 [Diclosulam] | 9.6 | – | – | –
7 | CCOP(=S)(OCC)SCCSCC [Disulfoton] | – | – | 10.6 | –
8 | CCCSP(=O)(OCC)SCCC [Ethoprop] | – | – | 9.2 | –
9 | CCOP(=O)(NC(C)C)Oc1ccc(SC)c(C)c1 (stereo not shown) [Fenamiphos] | 7.0 | 6.4 | 6.4 | 7.0
10 | N#Cc1nn(-c2c(Cl)cc(C(F)(F)F)cc2Cl)c(N)c1[S+]([O-])C(F)(F)F (stereo not shown) [Fipronil] | – | 10.8 | – | –
11 | CCCCOC(=O)C(C)Oc1ccc(Oc2ccc(C(F)(F)F)cn2)cc1 (stereo not shown) [Fluazifop-butyl] | – | – | 11.9 | –
12 | CC(C)Oc1cccc(NC(=O)c2ccccc2C(F)(F)F)c1 [Flutolanil] | – | -1.1 | – | -3.1
13 | CCCCC(O)(Cn1cncn1)c1ccc(Cl)cc1Cl (stereo not shown) [Hexaconazole] | – | 5.0 | – | 7.2
14 | CC(C)NC(=O)N1CC(=O)N(c2cc(Cl)cc(Cl)c2)C1=O [Iprodione] | 5.1 | 10.0 | 10.0 | 5.1
15 | CS(=O)(=O)c1cc(C(F)(F)F)ccc1C(=O)c1cnoc1C1CC1 [Isoxaflutole] | 6.0 | – | – | –
16 | CCCCOC(=O)c1ccccc1C(=O)O [MBP] | – | – | 15.2 | –
17 | Cc1cc(Cl)ccc1OCC(=O)O [MCPA] | 2.3 | 14.7 | 14.7 | 2.3
18 | COc1nn(CSP(=S)(OC)OC)c(=O)s1 [Methidathion] | – | 15.2 | 15.2 | –
19 | CCSC(=O)N1CCCCCC1 [Molinate] | – | – | 16.0 | –
20 | CNC(=O)/C=C(\C)OP(=O)(OC)OC [Monocrotophos] | – | 0.3 | – | -1.7
21 | O=C(Nc1ccc([N+](=O)[O-])cc1Cl)c1cc(Cl)ccc1O [Niclosamide] | – | – | – | -7.4
22 | O=C(O)c1c(Cl)ccc2cc(Cl)cnc12 [Quinclorac] | – | – | 17.2 | –
23 | CCNc1nc(Cl)nc(NCC)n1 [Simazine] | – | – | 10.7 | –
24 | CCC(C)(C)C(=O)OC1=C(c2ccc(Cl)cc2Cl)C(=O)OC12CCCCC2 [Spirodiclofen] | 4.3 | – | – | –
25 | CC(C)=CC1C(C(=O)OCN2C(=O)C3=C(CCCC3)C2=O)C1(C)C (stereo not shown) [Tetramethrin] | – | 1.4 | – | -5.8
26 | COP(=O)(OC)C(O)C(Cl)(Cl)Cl (stereo not shown) [Trichlorfon] | – | – | – | 11.0
27 | O=C(O)COc1nc(Cl)c(Cl)cc1Cl [Triclopyr] | 5.3 | 10.2 | 10.2 | 5.3
28 | Oc1cc(Cl)ccc1Oc1ccc(Cl)cc1Cl [Triclosan] | – | 2.1 | – | –
29 | CCCOC/C(=N\c1ccc(Cl)cc1C(F)(F)F)n1ccnc1 [Triflumizole] | – | -0.8 | – | -3.6
